According to publication PMC4136804:
No constants are given. Whether binding was seen depends on the method and setting. In cells and extracts the contact can be indirect. Binding calls can cover weak binding; strength is not graded here. Tags and fused reporters may be left off the sequences shown.

Molecular target: T1, myc-tagged full-length ZNF198 (human) (UniProt Q9UBW7)
T1 sequence: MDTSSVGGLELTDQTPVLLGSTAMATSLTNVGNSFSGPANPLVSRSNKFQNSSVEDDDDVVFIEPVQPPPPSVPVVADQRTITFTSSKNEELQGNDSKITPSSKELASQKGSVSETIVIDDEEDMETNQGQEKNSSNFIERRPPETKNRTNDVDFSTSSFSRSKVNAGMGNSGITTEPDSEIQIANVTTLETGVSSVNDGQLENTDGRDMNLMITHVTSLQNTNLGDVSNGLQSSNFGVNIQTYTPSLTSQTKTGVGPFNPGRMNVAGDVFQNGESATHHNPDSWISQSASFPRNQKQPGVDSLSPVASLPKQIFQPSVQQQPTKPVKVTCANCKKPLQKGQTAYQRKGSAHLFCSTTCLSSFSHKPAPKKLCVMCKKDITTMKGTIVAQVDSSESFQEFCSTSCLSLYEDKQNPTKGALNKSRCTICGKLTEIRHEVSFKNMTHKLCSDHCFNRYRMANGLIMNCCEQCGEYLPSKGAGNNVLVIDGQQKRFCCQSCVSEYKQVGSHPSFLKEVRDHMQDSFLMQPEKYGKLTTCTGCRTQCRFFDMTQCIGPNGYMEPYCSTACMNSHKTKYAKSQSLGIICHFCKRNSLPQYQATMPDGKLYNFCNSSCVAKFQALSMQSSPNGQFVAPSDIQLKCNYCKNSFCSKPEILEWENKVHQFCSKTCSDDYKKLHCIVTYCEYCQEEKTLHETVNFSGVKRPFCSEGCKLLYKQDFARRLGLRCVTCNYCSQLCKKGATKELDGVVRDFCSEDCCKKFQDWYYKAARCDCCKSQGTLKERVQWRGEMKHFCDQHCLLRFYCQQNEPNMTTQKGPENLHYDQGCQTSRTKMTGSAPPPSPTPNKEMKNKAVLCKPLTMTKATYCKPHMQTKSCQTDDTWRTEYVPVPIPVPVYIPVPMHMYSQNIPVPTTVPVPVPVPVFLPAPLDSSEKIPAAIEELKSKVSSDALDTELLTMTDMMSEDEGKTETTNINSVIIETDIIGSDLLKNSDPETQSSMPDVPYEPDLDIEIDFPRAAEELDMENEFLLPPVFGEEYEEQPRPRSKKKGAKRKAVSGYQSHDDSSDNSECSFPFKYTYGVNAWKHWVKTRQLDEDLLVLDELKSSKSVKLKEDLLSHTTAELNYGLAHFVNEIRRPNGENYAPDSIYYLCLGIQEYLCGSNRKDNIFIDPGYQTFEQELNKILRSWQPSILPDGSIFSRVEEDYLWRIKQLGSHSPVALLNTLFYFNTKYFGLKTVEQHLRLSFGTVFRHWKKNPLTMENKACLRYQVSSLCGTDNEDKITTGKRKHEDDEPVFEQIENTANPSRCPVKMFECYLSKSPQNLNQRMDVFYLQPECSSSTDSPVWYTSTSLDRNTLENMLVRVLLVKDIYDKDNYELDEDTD
Test: co-IP; myc-tagged ZNF198 and FLAG-tagged PML co-expressed in U2OS cells; anti-myc or anti-FLAG agarose; blots with anti-myc and anti-PML

Question: Which binding does the source give for FLAG-tagged PML (isoform III) here?
Answer: The binding was “binds”.
